These are yes or no findings as the source states them, for the method shown. In cells and extracts the contact can be indirect. Some results given as binding are weak or reduced against the parent protein; the word gives no strength. Where a sequence is shown, tags or fusion partners need not be part of it.
T1: MBP-Isc10 (full-length Isc10, 1-267) (S. cerevisiae) (UniProt P32645)
T1 sequence: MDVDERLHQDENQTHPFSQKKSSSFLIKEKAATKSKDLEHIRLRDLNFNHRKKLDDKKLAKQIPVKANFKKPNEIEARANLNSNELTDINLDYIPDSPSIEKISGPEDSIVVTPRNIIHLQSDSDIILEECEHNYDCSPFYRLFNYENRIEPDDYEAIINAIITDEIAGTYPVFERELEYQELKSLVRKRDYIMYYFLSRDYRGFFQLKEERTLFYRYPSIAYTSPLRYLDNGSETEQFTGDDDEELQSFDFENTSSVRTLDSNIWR

T2: MBP-Isc10^111-267 (S. cerevisiae) (UniProt P32645)
T2 sequence: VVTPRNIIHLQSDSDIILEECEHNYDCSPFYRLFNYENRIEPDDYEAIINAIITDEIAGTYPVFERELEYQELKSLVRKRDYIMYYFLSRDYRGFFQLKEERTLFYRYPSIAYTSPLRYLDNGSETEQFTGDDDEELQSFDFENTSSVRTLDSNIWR

T3: Ssp2^KAD-GST (Ssp2 residues 137-371 fused to glutathione-S-transferase) (S. cerevisiae) (UniProt Q08646)
T3 sequence: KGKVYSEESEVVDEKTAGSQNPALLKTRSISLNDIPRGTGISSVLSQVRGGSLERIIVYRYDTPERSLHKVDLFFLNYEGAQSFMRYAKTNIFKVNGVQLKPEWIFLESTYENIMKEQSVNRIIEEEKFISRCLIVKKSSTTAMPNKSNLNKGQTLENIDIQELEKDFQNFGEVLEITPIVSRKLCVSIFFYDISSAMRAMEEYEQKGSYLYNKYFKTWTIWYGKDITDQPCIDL

T4: Ssp2^KAD-T199A-GST (S. cerevisiae) (UniProt Q08646)
T4 sequence: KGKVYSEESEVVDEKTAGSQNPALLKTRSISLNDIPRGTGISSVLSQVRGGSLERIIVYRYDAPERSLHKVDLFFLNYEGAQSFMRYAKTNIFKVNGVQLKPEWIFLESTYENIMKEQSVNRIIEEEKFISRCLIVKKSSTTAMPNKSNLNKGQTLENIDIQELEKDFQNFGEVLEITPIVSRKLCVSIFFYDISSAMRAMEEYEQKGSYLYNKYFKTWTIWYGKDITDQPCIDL


Experiments:
[1] = biological target: T1, MBP-Isc10 (full-length Isc10, 1-267) (S. cerevisiae); assay: pull-down; ICK kinase domain (1-300) coexpressed with MBP-Isc10 in bacteria; fraction bound to amylose beads analysed with an ICK antiserum
[2] = biological target: T2, MBP-Isc10^111-267 (S. cerevisiae); assay: pull-down; amylose beads bound to MBP-Isc10^111-267 incubated with extracts from bacteria expressing ICK; beads washed, bound fraction analysed with an ICK antiserum; only the target purified
[3] = biological target: T3, Ssp2^KAD-GST (Ssp2 residues 137-371 fused to glutathione-S-transferase) (S. cerevisiae); assay: pull-down; Smk1-as1 coexpressed with Ssp2^KAD-GST (or its T199A form) and Cak1 in E. coli BL-21 DE3; complex purified from the extract on glutathione agarose beads, eluted with 20 mM reduced glutathione; kinase activity found in the eluate
[4] = biological target: T4, Ssp2^KAD-T199A-GST (S. cerevisiae); assay: as above

binding [1] | binding [2] | binding [3] | binding [4] | Binder
binds | binds |  |  | kinase domain of intestinal cell kinase ICK (residues 1-300) (domain or fragment, UniProt Q9UPZ9 1-300) MNRYTTIRQLGDGTYGSVLLGRSIESGELIAIKKMKRKFYSWEECMNLREVKSLKKLNHANVVKLKEVIRENDHLYFIFEYMKENLYQLIKERNKLFPESAIRNIMYQILQGLAFIHKHGFFHRDLKPENLLCMGPELVKIADFGLAREIRSKPPYTDYVSTRWYRAPEVLLRSTNYSSPIDVWAVGCIMAEVYTLRPLFPGASEIDTIFKICQVLGTPKKTDWPEGYQLSSAMNFRWPQCVPNNLKTLIPNASSEAVQLLRDMLQWDPKKRPTASQALRYPYFQVGHPLGSTTQNLQDS
 |  | binds | binds | Smk1-as1 (Smk1 Q121A, analog-sensitive) (enzyme, UniProt P41808 1-388) MNCTLTDNTRAINVASNLGAPQQRTIFAKERISIPGYYEIIQFLGKGAYGTVCSVKFKGRSPAARIAVKKISNIFNKEILLKRAIRELKFMNFFKGHKNIVNLIDLEIVTSSPYDGLYCYAELIDYDLAKVIHSSVQLSEFHIKYFLYQILCGLKYIHSADVIHRDLKPGNILCTLNGCLKICDFGLARGIHAGFFKCHSTVQPHITNYVATRWYRAPELLLSNQPYSKSVDIWAVGCILAEFYARKPVFMGRDSMHQIFEIIKVLGTPDKDILIKFGTIKAWNLGKNSNNPVYKKIPWSNIFPFASHEAINLIESLLHWDSTHRLNVEQAISHPFLNEVRKPDDEPVCLQGPFDFTYESELNSMSKLRDYLVEEVKNFKTDLSSSSL
